Reference: PubChem BioAssay AID1224830 (NIAID, 2016)
In all, the deposit lists about 18,000 reagents; shown is an unselected part. Over the whole deposit, about 2,900 (16%) are marked active. 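Calls are made per well; low scores hint the gene aids the LPS response, high scores that it dampens it.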 Repeated entries: four replicate wells of each siRNA pool. No sequences are given here.

Test: 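Host factors that control LPS-induced TNF expression in human macrophages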 (primary screen)
Cell system: human THP-1 monocytic leukaemia cells, TNF dual-luciferase reporter clone, PMA-differentiated to macrophage-like cells
Knock-down reagent: siRNA pool against human genes, 50 nM
Time to read-out: LPS for 4 h, given about 3 days after siRNA transfection
Conditions: bacterial LPS (TLR4 ligand), 10 ng/ml
Measured: 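Ratio of firefly to renilla light, scaled to the plate median and expressed as a robust z-score per replicate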
Scale: TNF reporter robust z-score: higher = stronger TNF reporter response to LPS
Rule for the call: 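a well is active when its z-score exceeds 2.8 or falls below -1.5; control wells carry no call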

no.	Gene	TNF reporter robust z-score	outcome
1	PIGG	1.08	inactive
2	PIGG	-0.34	inactive
3	PIGG	-0.95	inactive
4	PIGG	-0.21	inactive
5	AQP4	-1.71	active
6	AQP4	-1.35	inactive
7	AQP4	-1.51	active
8	AQP4	-0.9	inactive
9	OSTC	0.85	inactive
10	OSTC	0.79	inactive
11	OSTC	1.69	inactive
12	OSTC	0.39	inactive
13	RCN1	-0.22	inactive
14	RCN1	0.38	inactive
15	RCN1	-0.3	inactive
16	RCN1	-0.04	inactive
17	ADAM15	-0.92	inactive
18	ADAM15	-0.12	inactive
19	ADAM15	1	inactive
20	ADAM15	0.64	inactive
21	CNOT6L	-0.96	inactive
22	CNOT6L	-0.95	inactive
23	CNOT6L	-0.9	inactive
24	CNOT6L	0.06	inactive
25	GSTA2	0.49	inactive
26	GSTA2	0.31	inactive
27	GSTA2	0.2	inactive
28	GSTA2	0.93	inactive
29	FMR1NB	1.5	inactive
30	FMR1NB	2.51	inactive
31	FMR1NB	1.95	inactive
32	FMR1NB	-0.25	inactive
33	ARFGEF1	-0.71	inactive
34	ARFGEF1	3.13	active
35	ARFGEF1	0.17	inactive
36	ARFGEF1	0.66	inactive
37	RPL23AP82	0.21	inactive
38	RPL23AP82	0.28	inactive
39	RPL23AP82	0.66	inactive
40	RPL23AP82	-0.55	inactive
41	MAGEA11	0.07	inactive
42	MAGEA11	1.82	inactive
43	MAGEA11	0.7	inactive
44	MAGEA11	2.15	inactive
45	SPRR1A	-0.99	inactive
46	SPRR1A	-1.1	inactive
47	SPRR1A	-0.65	inactive
48	SPRR1A	-0.18	inactive
49	CDC20B	-2.04	active
50	CDC20B	-1.19	inactive
51	CDC20B	-1.02	inactive
52	CDC20B	-1.22	inactive
53	MRPL42	-0.57	inactive
54	MRPL42	-0.09	inactive
55	MRPL42	-0.23	inactive
56	MRPL42	1.47	inactive
57	DOCK1	0.32	inactive
58	DOCK1	0.35	inactive
59	DOCK1	0.86	inactive
60	DOCK1	-0.19	inactive
61	GEMIN5	-0.5	inactive
62	GEMIN5	1.14	inactive
63	GEMIN5	-0.09	inactive
64	GEMIN5	0.58	inactive
65	RPS6KB1	-0.17	inactive
66	RPS6KB1	1.42	inactive
67	RPS6KB1	0.84	inactive
68	RPS6KB1	0.98	inactive
69	STAC	-0.37	inactive
70	STAC	-0.02	inactive
71	STAC	0.25	inactive
72	STAC	-0.51	inactive
73	DSE	-1.58	active
74	DSE	-1.36	inactive
75	DSE	-0.85	inactive
76	DSE	0.12	inactive
77	ZNF611	1.05	inactive
78	ZNF611	-0.39	inactive
79	ZNF611	0.53	inactive
80	ZNF611	1.01	inactive
81	CRMA	-0.38	inactive
82	CRMA	0.68	inactive
83	CRMA	-0.75	inactive
84	CRMA	0.37	inactive
85	E2F2	0.27	inactive
86	E2F2	-0.88	inactive
87	E2F2	-0.84	inactive
88	E2F2	0.75	inactive
89	HNRNPLL	0.74	inactive
90	HNRNPLL	0.01	inactive
91	HNRNPLL	0.47	inactive
92	HNRNPLL	2.15	inactive
93	RASD1	-1.6	active
94	RASD1	-1.27	inactive
95	RASD1	-0.54	inactive
96	RASD1	0.15	inactive
97	PKD1	-0.7	inactive
98	PKD1	0.03	inactive
99	PKD1	-2.06	active
100	PKD1	-0.82	inactive
101	DHX9	0.18	inactive
102	DHX9	-0.66	inactive
103	DHX9	-0.54	inactive
104	DHX9	-0.58	inactive
105	NOPCHAP1	0.07	inactive
106	NOPCHAP1	0.01	inactive
107	NOPCHAP1	0.1	inactive
108	NOPCHAP1	0.59	inactive
109	TM4SF19	-0.7	inactive
110	TM4SF19	-1.26	inactive
111	TM4SF19	-0.4	inactive
112	TM4SF19	-0.63	inactive

Copied from the entries so far (10 entries):
no.	Gene	TNF reporter robust z-score	outcome
31	FMR1NB	1.95	inactive
32	FMR1NB	-0.25	inactive
33	ARFGEF1	-0.71	inactive
34	ARFGEF1	3.13	active
35	ARFGEF1	0.17	inactive
36	ARFGEF1	0.66	inactive
37	RPL23AP82	0.21	inactive
38	RPL23AP82	0.28	inactive
39	RPL23AP82	0.66	inactive
40	RPL23AP82	-0.55	inactive
